Measurements published in patent US9737525B2, “Small molecule activators of NRF2 pathway” (The General Hospital Corporation, priority 2013, dated 2017).

System: dopaminergic neurons
Assay: MPTP mouse model of Parkinson's disease
Format: in vivo
Settings: 90 min after MPTP injection
Experimental: Male C57BL/6 mice (˜25 g) from Charles River Laboratories, Wilmington, Mass. were housed in temperature- and humidity-controlled rooms with a 12 hr dark: light cycle and had free access to food and water. Subacute MPTP paradigm (20 mg/kg i.p. injection once daily for 4 days) was employed to test dose response of MIND4 at 30 mg/kg, 60 mg/kg, or 90 mg/kg (i.p. 10 min before and 50 min after each MPTP injection). The effective dose of 60 mg/kg was used in the subsequent experiments (i.p. 10 min before and 50 min after each MPTP injection). Control animals received saline (control for MPTP) and 10% propylene glycol and 90% dextrose as vehicle for MIND4 by i.p. Mice were sacrificed 7 days after the last MPTP administration and striatal DA and metabolite HVA were determined by high performance liquid chromatography (HPLC) coupled with electrochemical detection (ECD) Immunostaining for tyrosine hydroxylase (TH), a marker for dopaminergic neurons was performed using mouse anti-TH antibody (Sigma, ST. Louis, Mo.). Total numbers of TH positive neurons in the substantia nigra (SN) were counted under blinded conditions using the Bioquant Image Analysis System (R&M Biometrics, Nashville, Tenn.).
The protective effects of CPD4 have been confirmed in both acute and subchronic PTP paradigms by comprehensive behavioral, neurochemical, and neuropathological evaluations (FIG. 18). […]

SMILES | MPP+ concentration in the striatum
O=[N+]([O-])c1ccc(Sc2nnc(COc3ccccc3)n2-c2ccccc2)c2ncccc12 [MIND4, 5-nitro-8-{[5-(phenoxymethyl)-4-phenyl-4H-1,2,4-triazol-3-yl]thio}quinoline] | no difference in MPP+ concentration
O=C(Nc1cccc(Br)c1)c1cccc(S(=O)(=O)N2CCCCCC2)c1 [AK7, reference compound] | Increased levels of MPP^+
